In brackets after ≈: the same amount, converted by molar mass.
Tested on: serotonin (rat uterus)
Assay: antiserotonin activity in the rat uterus (spasmogenic effect of serotonin)
Format: cell-based
Details: rat uterine horn, 30° C., 0.4 microgram per milliliter of serotonin; read-out: IC50 (decrease of spasmogenic effect of serotonin by 50%)
Protocol: According to this test one of the uterine horns of a rat uterus is suspended in oxygenated salt solution at 30° C. The contractions of this tissue are then recorded and varying concentrations of the test compound introduced into the bath in order to determine the concentration that would decrease the spasmogenic effect of 0.4 microgram per milliliter of serotonin by 50%. This value is designated the IC50.

CC[C@@H](CO)NC(=O)[C@@H]1C=C2c3cccc4c3c(cn4C)C[C@H]2N(C)C1 [methysergide, reference compound]
IC50: 2.5 ng/mL (≈ 7.07 nM)

Source: patent US4064254A, “Substituted piperidines therapeutic process and compositions” (Mead Johnson & Company, priority 1976, dated 1977)
